# According to publication PMC3704519:
# No constants are given. Whether binding was seen depends on the method and setting. In cells and extracts the contact can be indirect. Binding can be weak; no strength is given. Where a sequence is shown, tags or fusion partners need not be part of it.
# Target: T1, FLAG-tagged evection-2 (UniProt Q96CS7)
# T1 sequence: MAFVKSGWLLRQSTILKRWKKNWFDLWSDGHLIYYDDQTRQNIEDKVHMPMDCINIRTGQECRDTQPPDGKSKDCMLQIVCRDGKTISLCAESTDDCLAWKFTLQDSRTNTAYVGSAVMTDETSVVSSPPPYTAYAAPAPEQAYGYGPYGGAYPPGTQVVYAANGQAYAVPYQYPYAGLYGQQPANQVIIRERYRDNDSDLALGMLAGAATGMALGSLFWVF
# Assay: co-IP; FLAG-evection-2 expressed in COS-1 for 24 h; post-nuclear supernatant treated with 0 or 0.1 mM DSP (2 h on ice, quenched with 20 mM Tris-HCl pH 7.4), lysed with 1% Triton X-100 in 25 mM Hepes-NaOH pH 7.3, 150 mM NaCl, 1 mM EDTA; anti-FLAG M2 affinity gel beads 2.5 h at 4°C; western blot; DSP increased the amount of SMAP2 co-precipitated
row,binding,Substance
1,binds,SMAP2
2,binds,GP73
